The record followed here is the supplement of paper PMC10849652.

By UniProt entry, the sequences of proteins in these tests, tags left out. Where a name states a change or a piece, a line headed by the entry shows the natural chain unless it says otherwise.
UniProt P09884: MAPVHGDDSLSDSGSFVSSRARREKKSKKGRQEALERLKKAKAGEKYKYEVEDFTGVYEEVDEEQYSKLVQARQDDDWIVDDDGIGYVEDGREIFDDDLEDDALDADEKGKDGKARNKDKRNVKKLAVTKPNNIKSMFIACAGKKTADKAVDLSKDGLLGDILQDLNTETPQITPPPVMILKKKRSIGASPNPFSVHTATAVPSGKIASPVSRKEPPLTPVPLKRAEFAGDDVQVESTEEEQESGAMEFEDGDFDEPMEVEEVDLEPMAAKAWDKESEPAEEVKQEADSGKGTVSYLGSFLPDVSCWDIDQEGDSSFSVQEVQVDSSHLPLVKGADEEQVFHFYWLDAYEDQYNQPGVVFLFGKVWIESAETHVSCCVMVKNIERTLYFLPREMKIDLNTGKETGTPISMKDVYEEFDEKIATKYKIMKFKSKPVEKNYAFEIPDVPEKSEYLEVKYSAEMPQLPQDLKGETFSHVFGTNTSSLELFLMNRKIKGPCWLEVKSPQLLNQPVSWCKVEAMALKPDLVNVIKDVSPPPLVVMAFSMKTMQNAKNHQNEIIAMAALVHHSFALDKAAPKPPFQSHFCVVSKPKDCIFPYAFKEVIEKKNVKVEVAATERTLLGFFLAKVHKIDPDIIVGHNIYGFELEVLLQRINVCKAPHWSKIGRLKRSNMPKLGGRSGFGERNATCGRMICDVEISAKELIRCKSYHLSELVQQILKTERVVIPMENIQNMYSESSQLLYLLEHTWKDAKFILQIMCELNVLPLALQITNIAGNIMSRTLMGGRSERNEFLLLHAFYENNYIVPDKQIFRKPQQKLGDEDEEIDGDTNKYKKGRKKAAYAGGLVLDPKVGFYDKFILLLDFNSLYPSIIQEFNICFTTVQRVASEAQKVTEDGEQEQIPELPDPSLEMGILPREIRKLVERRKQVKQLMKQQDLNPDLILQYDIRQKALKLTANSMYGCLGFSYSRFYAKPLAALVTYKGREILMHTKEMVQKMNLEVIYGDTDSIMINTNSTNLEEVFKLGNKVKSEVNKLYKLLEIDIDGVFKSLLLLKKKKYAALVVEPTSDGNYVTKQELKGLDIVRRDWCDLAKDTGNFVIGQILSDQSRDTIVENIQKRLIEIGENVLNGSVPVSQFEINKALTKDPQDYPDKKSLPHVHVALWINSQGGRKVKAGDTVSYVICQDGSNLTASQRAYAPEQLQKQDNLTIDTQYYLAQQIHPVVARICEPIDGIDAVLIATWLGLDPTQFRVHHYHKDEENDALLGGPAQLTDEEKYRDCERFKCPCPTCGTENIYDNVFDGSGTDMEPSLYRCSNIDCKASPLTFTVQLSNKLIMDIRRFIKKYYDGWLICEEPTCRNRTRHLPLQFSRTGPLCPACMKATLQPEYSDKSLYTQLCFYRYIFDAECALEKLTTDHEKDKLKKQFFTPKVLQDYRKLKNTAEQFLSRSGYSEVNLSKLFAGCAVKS
UniProt Q8TD55: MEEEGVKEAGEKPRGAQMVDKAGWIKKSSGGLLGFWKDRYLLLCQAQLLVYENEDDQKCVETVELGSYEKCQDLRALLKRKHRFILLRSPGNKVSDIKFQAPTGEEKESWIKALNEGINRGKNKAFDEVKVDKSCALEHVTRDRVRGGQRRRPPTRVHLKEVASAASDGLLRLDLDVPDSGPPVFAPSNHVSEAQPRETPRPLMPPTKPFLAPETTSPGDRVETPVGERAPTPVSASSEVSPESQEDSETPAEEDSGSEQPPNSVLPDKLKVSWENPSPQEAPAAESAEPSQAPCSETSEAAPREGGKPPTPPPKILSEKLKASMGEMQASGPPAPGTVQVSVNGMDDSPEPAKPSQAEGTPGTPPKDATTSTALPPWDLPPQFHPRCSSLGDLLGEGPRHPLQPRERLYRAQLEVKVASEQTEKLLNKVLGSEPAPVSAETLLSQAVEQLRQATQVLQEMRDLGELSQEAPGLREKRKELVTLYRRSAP
UniProt Q6EEV4: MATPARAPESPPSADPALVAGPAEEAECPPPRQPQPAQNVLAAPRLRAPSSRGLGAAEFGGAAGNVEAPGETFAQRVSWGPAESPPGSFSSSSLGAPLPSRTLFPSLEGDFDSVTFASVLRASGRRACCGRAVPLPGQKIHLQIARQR
UniProt P00747, whole entry, looked up: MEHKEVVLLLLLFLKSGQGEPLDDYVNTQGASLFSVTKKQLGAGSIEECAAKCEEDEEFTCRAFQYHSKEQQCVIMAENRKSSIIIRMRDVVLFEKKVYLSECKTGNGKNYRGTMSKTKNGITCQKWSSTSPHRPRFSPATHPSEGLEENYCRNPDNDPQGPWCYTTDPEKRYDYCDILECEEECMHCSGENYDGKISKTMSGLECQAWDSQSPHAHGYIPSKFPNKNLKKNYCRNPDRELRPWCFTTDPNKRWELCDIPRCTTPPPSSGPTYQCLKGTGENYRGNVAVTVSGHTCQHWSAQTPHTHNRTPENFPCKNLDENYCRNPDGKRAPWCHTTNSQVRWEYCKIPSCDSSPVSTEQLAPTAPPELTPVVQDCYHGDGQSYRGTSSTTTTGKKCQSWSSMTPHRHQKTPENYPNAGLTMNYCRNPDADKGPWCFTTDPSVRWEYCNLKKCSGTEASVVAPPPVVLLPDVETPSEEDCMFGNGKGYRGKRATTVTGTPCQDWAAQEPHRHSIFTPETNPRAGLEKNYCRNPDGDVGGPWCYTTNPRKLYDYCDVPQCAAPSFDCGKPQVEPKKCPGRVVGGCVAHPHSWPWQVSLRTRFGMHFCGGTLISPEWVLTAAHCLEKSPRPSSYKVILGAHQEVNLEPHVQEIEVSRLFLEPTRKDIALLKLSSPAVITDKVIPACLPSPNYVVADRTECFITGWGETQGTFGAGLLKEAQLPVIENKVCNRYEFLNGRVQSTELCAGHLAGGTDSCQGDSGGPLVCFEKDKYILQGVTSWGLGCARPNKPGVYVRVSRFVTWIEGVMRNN
UniProt Q9NVU0: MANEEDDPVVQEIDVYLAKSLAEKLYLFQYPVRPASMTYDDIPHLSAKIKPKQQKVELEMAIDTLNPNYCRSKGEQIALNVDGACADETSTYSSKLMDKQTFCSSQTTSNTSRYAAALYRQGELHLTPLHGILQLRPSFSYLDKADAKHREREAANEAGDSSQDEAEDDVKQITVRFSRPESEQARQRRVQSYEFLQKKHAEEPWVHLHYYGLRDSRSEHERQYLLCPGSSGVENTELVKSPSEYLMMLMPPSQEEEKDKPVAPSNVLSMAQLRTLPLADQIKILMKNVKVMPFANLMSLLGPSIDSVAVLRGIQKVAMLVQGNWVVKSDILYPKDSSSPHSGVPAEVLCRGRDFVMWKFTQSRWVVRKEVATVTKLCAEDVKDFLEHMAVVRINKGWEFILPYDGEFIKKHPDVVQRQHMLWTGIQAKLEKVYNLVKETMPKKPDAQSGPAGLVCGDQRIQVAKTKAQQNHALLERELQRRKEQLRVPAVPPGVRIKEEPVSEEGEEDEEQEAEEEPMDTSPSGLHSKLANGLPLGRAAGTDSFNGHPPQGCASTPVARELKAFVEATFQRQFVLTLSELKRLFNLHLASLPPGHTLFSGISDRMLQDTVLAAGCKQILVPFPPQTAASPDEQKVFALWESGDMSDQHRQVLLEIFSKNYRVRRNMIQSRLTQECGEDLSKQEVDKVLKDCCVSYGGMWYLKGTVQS
UniProt Q07864, whole entry, looked up: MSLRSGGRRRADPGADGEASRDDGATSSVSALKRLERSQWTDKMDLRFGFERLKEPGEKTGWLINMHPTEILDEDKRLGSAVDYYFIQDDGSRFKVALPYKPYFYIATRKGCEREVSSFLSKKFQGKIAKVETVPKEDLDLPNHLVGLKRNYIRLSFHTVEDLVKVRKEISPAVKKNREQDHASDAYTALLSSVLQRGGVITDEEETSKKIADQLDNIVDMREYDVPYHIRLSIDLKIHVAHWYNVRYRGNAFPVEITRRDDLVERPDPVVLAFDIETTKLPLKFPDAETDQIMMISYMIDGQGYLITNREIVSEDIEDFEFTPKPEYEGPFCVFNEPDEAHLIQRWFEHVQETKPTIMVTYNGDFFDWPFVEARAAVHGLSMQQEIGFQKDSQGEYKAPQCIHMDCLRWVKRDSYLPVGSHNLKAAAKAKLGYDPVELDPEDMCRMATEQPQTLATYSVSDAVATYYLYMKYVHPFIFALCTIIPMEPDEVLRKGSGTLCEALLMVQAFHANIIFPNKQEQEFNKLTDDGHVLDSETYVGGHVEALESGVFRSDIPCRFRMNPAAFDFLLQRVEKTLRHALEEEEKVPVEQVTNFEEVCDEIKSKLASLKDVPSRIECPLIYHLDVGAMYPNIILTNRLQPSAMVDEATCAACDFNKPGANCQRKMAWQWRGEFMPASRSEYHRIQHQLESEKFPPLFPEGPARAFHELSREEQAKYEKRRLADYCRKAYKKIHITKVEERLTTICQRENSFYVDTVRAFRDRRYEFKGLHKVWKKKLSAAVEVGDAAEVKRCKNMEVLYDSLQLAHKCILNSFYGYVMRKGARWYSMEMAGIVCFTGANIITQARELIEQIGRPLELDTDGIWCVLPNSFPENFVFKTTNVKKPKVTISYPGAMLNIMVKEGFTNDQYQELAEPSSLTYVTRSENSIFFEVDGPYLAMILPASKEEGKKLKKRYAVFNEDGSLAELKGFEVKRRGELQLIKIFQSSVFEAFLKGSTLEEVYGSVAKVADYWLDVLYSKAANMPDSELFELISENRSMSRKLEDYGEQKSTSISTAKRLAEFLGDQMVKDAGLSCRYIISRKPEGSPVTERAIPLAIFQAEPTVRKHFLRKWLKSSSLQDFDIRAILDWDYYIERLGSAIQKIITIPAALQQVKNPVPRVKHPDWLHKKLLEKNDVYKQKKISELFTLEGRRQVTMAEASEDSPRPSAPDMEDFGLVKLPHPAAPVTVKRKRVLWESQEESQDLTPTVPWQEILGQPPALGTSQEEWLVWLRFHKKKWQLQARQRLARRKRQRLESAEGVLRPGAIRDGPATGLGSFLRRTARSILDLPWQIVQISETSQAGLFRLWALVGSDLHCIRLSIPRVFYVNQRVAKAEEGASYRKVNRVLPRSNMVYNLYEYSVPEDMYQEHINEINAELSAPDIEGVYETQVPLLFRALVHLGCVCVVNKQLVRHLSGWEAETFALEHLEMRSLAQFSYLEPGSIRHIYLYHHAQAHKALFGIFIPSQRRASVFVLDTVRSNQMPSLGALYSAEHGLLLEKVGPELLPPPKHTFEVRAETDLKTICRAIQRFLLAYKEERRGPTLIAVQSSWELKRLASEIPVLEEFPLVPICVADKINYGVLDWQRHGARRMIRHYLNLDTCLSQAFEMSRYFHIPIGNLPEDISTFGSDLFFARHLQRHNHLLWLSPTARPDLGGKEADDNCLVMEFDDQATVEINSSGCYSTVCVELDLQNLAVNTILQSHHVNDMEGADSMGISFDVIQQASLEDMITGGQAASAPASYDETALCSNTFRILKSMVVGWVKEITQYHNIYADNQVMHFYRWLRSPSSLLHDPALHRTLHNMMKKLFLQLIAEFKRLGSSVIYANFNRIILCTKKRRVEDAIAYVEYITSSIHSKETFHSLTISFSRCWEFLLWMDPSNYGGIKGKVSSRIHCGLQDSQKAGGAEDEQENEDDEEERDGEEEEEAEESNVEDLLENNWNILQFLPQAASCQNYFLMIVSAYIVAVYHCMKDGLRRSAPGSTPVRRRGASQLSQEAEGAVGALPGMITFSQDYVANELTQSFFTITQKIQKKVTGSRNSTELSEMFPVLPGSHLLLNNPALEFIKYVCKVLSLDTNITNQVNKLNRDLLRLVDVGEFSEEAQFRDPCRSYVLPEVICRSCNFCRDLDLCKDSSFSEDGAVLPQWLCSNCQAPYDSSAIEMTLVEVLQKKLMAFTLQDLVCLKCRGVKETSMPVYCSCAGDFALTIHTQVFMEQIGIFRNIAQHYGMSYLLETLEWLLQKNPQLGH
UniProt Q8NA72: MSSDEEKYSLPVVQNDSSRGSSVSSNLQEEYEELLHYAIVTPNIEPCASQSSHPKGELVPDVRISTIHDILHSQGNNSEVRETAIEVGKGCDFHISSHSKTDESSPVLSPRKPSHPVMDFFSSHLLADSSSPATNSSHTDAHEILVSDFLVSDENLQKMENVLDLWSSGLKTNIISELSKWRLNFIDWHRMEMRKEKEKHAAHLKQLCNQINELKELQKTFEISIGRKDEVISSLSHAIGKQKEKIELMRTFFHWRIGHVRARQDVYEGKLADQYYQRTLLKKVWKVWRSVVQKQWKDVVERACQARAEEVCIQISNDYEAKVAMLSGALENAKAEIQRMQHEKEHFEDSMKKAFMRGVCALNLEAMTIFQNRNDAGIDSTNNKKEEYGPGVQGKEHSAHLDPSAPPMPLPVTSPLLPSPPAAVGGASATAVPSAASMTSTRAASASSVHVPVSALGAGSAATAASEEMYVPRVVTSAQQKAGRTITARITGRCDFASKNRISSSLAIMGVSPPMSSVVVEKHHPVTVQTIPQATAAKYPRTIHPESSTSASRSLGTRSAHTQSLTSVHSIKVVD

Common to all, as to experiment: log2 fold change, soluble protein after heating vs DMSO (PISA); higher = thermal stabilisation; K562 lysate, 10 uM; active = over 0.2 and 3.5 SD of the protein, either way, in both replicates (recomputed)
Compound in assay [1]: NCC(=O)Nc1ccc(-n2nc(C(F)(F)F)cc2-c2ccc3c(ccc4ccccc43)c2)cc1
In outline:
(§1)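 Pellets of K562 cells were dounce-homogenised in PBS pH 7.4 with 1 mM MgCl2, and the crude extract was held at 1 mg/mL protein for a 30 min treatment with 10 μM compound. Aliquots were heated for 3 min over 48°C-58°C and pooled before NP-40 was added to 0.5% at 4°C. The supernatant from 21,000xg for 90 min was quantified by TMTpro 16plex LC-MS/MS with channel sums equalised. Values are reported from duplicates as log-two fold change in thermal stability relative to solvent controls.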

Compound in a further assay: O=C(CCCCCCC(=O)Nc1ccccc1)NO [vorinostat]
In outline: as §1

Compound in another assay: O=C(O)c1ccc2c(c1)nc(Nc1cccc(Cl)c1)c1ccncc12 [silmitasertib]
Put shortly: as §1

Compound in assay [2]: O=C1NC(=O)C(c2cnc3ccccn23)=C1c1cn2c3c(cc(F)cc13)CN(C(=O)N1CCCCC1)CC2
Put shortly:
as §1

Compound in the next assay: c1cn2cc(-c3ccc4cn[nH]c4c3)nc(Nc3ccc(N4CCOCC4)cc3)c2n1 [entospletinib]
In outline:
as §1

The other results are listed elsewhere or left out.

Regarding PNPLA2 (UniProt Q96AD5), the log2 fold change in assay [1] is inactive: -0.016; with vorinostat, inactive: 0.089; in the assay with silmitasertib it was inactive: 0.019; in assay [2], inactive: 0.039; with entospletinib, inactive: -0.016.

Turning to POLA1 (UniProt P09884), the log2 fold change in assay [1] was inactive: 0.009; with vorinostat it was active: -0.293; with silmitasertib, inactive: -0.019; in assay [2] it was inactive: 0.006; with entospletinib it was inactive: -0.016.

For the target PLEKHO2 (UniProt Q8TD55), the log2 fold change in assay [1] is inactive: 0.045; with vorinostat it was inactive: -0.103; with silmitasertib, inactive: 0.347; in assay [2], inactive: -0.018; with entospletinib, inactive: 0.082.

In the case of POLR2M (UniProt Q6EEV4), the log2 fold change in assay [1] was inactive: 0.146; with vorinostat, inactive: -0.019; with silmitasertib, inactive: -0.069; in assay [2], inactive: 0.06; in the assay with entospletinib it was inactive: -0.022.

As to POLR2L (UniProt P62875), the log2 fold change was inactive: -0.012 in assay [1]; inactive: -0.149 with vorinostat; inactive: 0.027 in the assay with silmitasertib; inactive: 0.015 in assay [2]; inactive: -0.043 with entospletinib.

Take PLG (UniProt P00747): the log2 fold change was inactive: 0.119 in assay [1]; inactive: -0.092 with vorinostat; inactive: -0.117 with silmitasertib; inactive: 0 in assay [2]; inactive: -0.067 with entospletinib.

For the target POLR1D (UniProt P0DPB6), the log2 fold change in assay [1] was inactive: -0.027; in the assay with vorinostat, inactive: -0.171; with silmitasertib, inactive: -0.046; in assay [2], inactive: 0.027; in the assay with entospletinib it was inactive: 0.005.

On to PLS3 (UniProt P13797), for which the log2 fold change in assay [1] is inactive: 0.019; with vorinostat, inactive: 0.125; with silmitasertib it was inactive: -0.007; in assay [2], inactive: 0.008; with entospletinib, inactive: 0.009.

As to PLIN2 (UniProt Q99541), the log2 fold change was inactive: 0.012 in assay [1]; inactive: 0.063 in the assay with vorinostat; inactive: -0.008 with silmitasertib; inactive: 0.008 in assay [2]; inactive: -0.032 with entospletinib.

On to POLR1E (UniProt Q9GZS1), for which the log2 fold change was inactive: -0.005 in assay [1]; inactive: -0.167 with vorinostat; inactive: 0.069 with silmitasertib; inactive: 0.002 in assay [2]; inactive: 0 in the assay with entospletinib.

In the case of POLR3E (UniProt Q9NVU0), the log2 fold change in assay [1] is inactive: -0.017; with vorinostat, active: -0.263; with silmitasertib, inactive: -0.023; in assay [2] it was inactive: 0.027; with entospletinib, inactive: -0.004.

For the target POLE2 (UniProt P56282), the log2 fold change in assay [1] is inactive: -0.013; with vorinostat, inactive: -0.053; with silmitasertib it was inactive: -0.003; in assay [2], inactive: -0.016; in the assay with entospletinib it was inactive: 0.007.

Turning to POM121 (UniProt Q96HA1), the log2 fold change is inactive: 0.18 in assay [1]; inactive: 0.005 with vorinostat; inactive: -0.069 with silmitasertib; inactive: 0.015 in assay [2]; inactive: 0.135 with entospletinib.

POLE (UniProt Q07864): the log2 fold change in assay [1] was inactive: -0.006; with vorinostat it was inactive: -0.183; in the assay with silmitasertib, inactive: 0.051; in assay [2], inactive: 0.003; in the assay with entospletinib it was inactive: 0.009.

For PPIE (UniProt Q9UNP9), the log2 fold change was inactive: 0.024 in assay [1]; inactive: 0.096 with vorinostat; inactive: 0.035 with silmitasertib; inactive: -0.045 in assay [2]; inactive: -0.036 with entospletinib.

For POLR1B isoform 3 (UniProt Q9H9Y6), the log2 fold change in assay [1] is inactive: 0.05; in the assay with vorinostat it was inactive: -0.138; with silmitasertib, inactive: 0.048; in assay [2] it was inactive: -0.028; with entospletinib, inactive: -0.005.

Consider POP7 (UniProt O75817), for which the log2 fold change was inactive: 0.034 in assay [1]; inactive: 0.192 with vorinostat; inactive: -0.048 with silmitasertib; inactive: -0.019 in assay [2]; inactive: 0.014 with entospletinib.

For the target PNKD (UniProt Q8N490), the log2 fold change was inactive: -0.012 in assay [1]; inactive: 0.034 in the assay with vorinostat; inactive: -0.139 in the assay with silmitasertib; inactive: 0.029 in assay [2]; inactive: -0.092 with entospletinib.

With PLPBP (UniProt O94903), the log2 fold change in assay [1] is inactive: -0.091; with vorinostat it was inactive: 0.014; with silmitasertib, inactive: 0.001; in assay [2], inactive: 0.009; with entospletinib it was inactive: -0.001.

As for PPIA (UniProt P62937), the log2 fold change in assay [1] is inactive: -0.073; with vorinostat it was inactive: -0.024; with silmitasertib, inactive: 0.027; in assay [2], inactive: -0.017; in the assay with entospletinib it was inactive: 0.019.

As for POC5 (UniProt Q8NA72), the log2 fold change in assay [1] was inactive: -0.128; with vorinostat, active: -0.36; with silmitasertib, inactive: -0.021; in assay [2] it was inactive: 0.02; with entospletinib, inactive: -0.184.

On to POLG2 (UniProt Q9UHN1), for which the log2 fold change in assay [1] was inactive: 0.02; with vorinostat, inactive: 0.027; with silmitasertib, inactive: -0.049; in assay [2] it was inactive: -0.01; in the assay with entospletinib, inactive: 0.01.

PPID (UniProt Q08752): the log2 fold change was inactive: 0 in assay [1]; inactive: -0.116 with vorinostat; inactive: 0.025 with silmitasertib; inactive: 0.008 in assay [2]; inactive: 0.022 with entospletinib.

POMGNT1 isoform 2 (UniProt Q8WZA1): the log2 fold change is inactive: 0.042 in assay [1]; inactive: -0.009 in the assay with vorinostat; inactive: -0.056 in the assay with silmitasertib; inactive: 0.009 in assay [2]; inactive: -0.008 with entospletinib.
